Experimental findings from PMC10899759 are described below.

Amino acid sequences for entries named in this document (tags omitted). A change or cut given only in a name is not applied to a line headed by its entry.
UniProt Q8NDV7: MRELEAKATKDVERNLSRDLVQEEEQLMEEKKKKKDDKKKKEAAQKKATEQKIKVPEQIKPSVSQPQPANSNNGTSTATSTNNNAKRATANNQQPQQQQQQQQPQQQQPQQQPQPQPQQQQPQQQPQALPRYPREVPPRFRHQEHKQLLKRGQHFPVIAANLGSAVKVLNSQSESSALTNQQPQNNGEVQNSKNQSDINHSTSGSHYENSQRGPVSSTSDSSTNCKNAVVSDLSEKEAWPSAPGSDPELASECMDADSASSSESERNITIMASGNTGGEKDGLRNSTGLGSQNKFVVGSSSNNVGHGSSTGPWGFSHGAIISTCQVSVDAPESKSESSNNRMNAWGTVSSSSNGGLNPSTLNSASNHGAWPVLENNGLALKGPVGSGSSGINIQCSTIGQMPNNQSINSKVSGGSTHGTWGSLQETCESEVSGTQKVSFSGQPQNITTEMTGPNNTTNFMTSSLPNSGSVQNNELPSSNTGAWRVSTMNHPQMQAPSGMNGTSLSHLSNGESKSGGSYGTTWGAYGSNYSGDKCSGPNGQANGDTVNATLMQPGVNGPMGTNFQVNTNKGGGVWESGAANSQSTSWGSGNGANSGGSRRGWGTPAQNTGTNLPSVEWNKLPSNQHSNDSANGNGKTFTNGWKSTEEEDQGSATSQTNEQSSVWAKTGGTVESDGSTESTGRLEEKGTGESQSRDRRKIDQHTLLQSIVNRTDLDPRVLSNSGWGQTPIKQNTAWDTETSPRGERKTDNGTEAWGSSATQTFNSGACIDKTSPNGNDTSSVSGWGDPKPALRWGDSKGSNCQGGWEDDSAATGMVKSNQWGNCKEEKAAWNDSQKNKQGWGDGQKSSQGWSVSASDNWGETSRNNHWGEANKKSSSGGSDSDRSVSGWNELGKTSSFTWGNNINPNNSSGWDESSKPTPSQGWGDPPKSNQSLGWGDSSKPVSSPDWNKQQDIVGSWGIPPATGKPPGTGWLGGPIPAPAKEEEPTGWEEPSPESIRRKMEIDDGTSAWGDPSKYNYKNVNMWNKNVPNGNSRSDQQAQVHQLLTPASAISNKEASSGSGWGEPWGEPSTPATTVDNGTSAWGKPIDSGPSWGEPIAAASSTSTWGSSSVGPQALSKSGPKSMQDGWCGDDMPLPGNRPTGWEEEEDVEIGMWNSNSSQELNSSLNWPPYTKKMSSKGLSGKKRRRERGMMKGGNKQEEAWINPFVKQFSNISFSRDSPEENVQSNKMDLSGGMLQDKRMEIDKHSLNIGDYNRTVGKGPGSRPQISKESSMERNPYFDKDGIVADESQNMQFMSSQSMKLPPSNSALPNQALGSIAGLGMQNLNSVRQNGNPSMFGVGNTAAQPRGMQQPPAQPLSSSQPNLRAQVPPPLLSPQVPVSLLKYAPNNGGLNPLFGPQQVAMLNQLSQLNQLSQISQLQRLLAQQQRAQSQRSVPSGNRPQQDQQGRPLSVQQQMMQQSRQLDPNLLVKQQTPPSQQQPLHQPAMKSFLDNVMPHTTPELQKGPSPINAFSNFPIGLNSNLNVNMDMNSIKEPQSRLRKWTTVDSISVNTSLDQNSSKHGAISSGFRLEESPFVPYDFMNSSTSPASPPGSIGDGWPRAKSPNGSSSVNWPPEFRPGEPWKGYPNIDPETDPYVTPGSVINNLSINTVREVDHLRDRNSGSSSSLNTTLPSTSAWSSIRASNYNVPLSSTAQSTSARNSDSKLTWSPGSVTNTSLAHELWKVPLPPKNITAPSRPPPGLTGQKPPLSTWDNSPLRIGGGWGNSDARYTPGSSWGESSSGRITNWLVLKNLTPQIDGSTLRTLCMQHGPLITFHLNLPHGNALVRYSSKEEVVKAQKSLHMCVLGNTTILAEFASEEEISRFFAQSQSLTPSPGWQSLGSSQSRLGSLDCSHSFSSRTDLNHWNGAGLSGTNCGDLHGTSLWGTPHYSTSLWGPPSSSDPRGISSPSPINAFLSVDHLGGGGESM
UniProt Q9UKV8: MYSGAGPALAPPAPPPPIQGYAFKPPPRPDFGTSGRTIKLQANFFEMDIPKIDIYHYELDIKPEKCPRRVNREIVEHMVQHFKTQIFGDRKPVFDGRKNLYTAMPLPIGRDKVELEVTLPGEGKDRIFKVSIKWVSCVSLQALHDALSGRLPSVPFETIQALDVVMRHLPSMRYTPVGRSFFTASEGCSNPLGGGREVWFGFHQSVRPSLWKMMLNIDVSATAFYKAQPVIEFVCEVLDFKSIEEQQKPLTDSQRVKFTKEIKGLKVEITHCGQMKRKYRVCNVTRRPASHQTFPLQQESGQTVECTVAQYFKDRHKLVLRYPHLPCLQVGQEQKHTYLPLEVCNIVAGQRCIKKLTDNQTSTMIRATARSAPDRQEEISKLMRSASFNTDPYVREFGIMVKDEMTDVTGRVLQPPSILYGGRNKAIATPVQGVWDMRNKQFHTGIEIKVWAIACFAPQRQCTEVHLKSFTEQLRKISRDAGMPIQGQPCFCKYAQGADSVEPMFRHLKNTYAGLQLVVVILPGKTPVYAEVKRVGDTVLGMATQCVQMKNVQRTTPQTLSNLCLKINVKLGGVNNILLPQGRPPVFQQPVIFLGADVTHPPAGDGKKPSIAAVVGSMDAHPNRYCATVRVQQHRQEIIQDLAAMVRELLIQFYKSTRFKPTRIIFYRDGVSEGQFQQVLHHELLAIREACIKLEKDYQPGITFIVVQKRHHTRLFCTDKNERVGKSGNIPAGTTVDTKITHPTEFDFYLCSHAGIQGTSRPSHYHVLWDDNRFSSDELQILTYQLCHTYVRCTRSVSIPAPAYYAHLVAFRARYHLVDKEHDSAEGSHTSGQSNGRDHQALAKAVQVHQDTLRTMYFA

Results are given in words; binding and its absence hold for the method and conditions named. Binding seen in cells or lysates may run through a third protein. Some results given as binding are weak or reduced against the parent protein; the word gives no strength.

Assay [1] deals with Trinucleotide repeat containing protein 6A (human (endogenous in HCT116)) (UniProt Q8NDV7). Kind of assay: co-IP; reciprocal co-IP from WT HCT116 whole cell lysate at normal confluency (60%, Day 3), without RNase; anti-AGO2 or anti-TNRC6A antibody on Dynabeads Protein G, overnight at 4°C, washes with 400 mM NaCl; rabbit IgG as negative control.
The target in assay [2] is Argonaute 2 (human (endogenous in HCT116)) (UniProt Q9UKV8). The description is as above.
The target is the same in assay [3]. Nature of the assay: condition: only cells grown to high density (near 200% or greater; co-IP at 350%, Day 7), where TNRC6A protein expression is reduced; co-IP; reciprocal co-IP from WT HCT116 whole cell lysate at high confluency (350%, Day 7), without RNase; anti-AGO2 or anti-TNRC6A antibody on Dynabeads Protein G, overnight at 4°C, washes with 400 mM NaCl; rabbit IgG as negative control.

As for “Argonaute 2 (from UniProt Q9UKV8-1 1-859)”, in assay [1], the binding entry is on record as “binds”.

Turning to “Trinucleotide repeat containing protein 6A (from UniProt Q8NDV7 1-1962)”, the binding result in assay [2] is “binds”; in assay [3], “no binding”.
